Measurements taken from patent publication US20220193047A1, “METHODS OF ENHANCING RADIOTHERAPY USING FERROPTOSIS INDUCERS AS RADIOSENSITIZERS” (THE TRUSTEES OF COLUMBIA UNIVERSITY IN THE CITY OF NEW YORK, priority 2019, published 2022).
For at least one compound, name, drawing or mass did not settle the structure.

System: HT-1080 cells
Assay: Clonogenic assay with Cs-137 gamma radiation, HT-1080
Type: cell-based
Settings: HT-1080, 2 or 4 Gy radiation, no ferroptosis inducer
Method: 500 cells were seeded per well in 6-well plates in their respective growth media and incubated overnight. The next day, cells were co-treated with DMSO or compounds and radiation using a Gammacell 40 Caesium-137 irradiator (Theratronics). Plates were monitored every day using a light microscope for formation of colonies in the DMSO-treated wells. When colonies of >50 cells are clearly visible, the growth medium was discarded from all plates. The cells were washed with PBS, then fixed and stained with crystal violet solution (0.05% crystal violet, 1% formaldehyde, 1% methanol in PBS). Colonies were then directly visualized and counted.
We tested their ability to prevent clonogenic growth, along with DMSO-treated controls.
The coefficient of drug interaction (CDI), used to compute interaction between two drugs, was used to quantify synergy between cell death inducers and radiation according to the formula CDI=AB/(A×B), where AB is the surviving fraction of the combination treatment, and A and B are the surviving fractions of the individual treatments.

For `CC(=O)N(O)CCCCCNC(=O)CCC(=O)N(O)CCCCCNC(=O)CCC(=O)N(O)CCCCCN` [Deferoxamine], the “Colony formation after radiation alone” value was “prevented cell proliferation and colony formation independent of radiation treatment”.
